Some of the results follow. Small differences around the control level are noise.
Compound: CN[C@@H]1C[C@H]2O[C@@](C)([C@@H]1OC)n1c3ccccc3c3c4c(c5c6ccccc6n2c5c31)C(=O)NC4 [staurosporine]
Assay: log2 fold change of tryptic peptide abundance, ligand vs vehicle (limited proteolysis) (log2 ratio); higher = more trypsin-susceptible (destabilized)
Conditions: ligand concentration: 20 uM; sample: mouse liver crude lysate; replicate design: treated separately

Amino acid sequences for entries named in this document (tags omitted). A change or cut given only in a name is not applied to a line headed by its entry.
UniProt Q8BGD9, whole entry: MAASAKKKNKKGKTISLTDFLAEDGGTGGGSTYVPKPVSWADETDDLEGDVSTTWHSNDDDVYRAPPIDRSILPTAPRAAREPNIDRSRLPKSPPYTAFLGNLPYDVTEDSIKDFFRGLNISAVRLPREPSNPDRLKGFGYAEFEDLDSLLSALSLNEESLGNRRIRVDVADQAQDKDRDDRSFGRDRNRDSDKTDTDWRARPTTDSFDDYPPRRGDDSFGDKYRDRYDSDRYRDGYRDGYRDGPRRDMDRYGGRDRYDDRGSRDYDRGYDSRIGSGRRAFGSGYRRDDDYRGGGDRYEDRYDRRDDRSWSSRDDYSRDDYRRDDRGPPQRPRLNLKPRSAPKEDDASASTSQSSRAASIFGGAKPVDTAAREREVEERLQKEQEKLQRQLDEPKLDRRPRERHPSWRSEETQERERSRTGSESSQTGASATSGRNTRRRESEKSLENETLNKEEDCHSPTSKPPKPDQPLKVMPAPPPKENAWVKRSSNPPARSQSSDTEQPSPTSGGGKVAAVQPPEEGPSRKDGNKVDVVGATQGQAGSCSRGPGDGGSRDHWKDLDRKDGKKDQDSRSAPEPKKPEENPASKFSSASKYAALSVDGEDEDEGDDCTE
UniProt Q8BHN1: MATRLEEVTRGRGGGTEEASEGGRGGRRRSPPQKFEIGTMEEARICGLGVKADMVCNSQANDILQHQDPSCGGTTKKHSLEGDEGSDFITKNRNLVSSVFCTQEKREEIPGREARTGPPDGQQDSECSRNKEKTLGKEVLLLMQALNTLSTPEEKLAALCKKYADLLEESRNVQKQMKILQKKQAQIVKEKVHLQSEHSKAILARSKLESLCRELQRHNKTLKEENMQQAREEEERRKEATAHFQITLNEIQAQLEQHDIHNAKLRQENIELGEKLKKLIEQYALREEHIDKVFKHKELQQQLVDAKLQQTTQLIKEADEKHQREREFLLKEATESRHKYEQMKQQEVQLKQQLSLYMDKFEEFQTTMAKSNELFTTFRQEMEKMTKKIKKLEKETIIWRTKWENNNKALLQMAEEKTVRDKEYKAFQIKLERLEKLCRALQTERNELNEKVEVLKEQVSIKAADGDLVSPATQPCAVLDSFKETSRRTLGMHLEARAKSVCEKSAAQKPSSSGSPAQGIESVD
UniProt Q8BHT7: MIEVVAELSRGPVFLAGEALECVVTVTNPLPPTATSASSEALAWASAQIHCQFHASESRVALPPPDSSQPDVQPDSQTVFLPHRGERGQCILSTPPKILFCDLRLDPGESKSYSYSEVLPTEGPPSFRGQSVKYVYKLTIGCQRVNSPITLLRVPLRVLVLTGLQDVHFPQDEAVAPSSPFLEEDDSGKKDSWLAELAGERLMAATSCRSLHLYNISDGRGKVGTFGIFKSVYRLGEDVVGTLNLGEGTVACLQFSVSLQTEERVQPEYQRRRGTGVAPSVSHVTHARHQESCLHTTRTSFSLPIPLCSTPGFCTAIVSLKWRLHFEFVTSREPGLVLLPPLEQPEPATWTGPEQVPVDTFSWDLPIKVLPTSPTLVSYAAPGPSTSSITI
UniProt Q8BG51: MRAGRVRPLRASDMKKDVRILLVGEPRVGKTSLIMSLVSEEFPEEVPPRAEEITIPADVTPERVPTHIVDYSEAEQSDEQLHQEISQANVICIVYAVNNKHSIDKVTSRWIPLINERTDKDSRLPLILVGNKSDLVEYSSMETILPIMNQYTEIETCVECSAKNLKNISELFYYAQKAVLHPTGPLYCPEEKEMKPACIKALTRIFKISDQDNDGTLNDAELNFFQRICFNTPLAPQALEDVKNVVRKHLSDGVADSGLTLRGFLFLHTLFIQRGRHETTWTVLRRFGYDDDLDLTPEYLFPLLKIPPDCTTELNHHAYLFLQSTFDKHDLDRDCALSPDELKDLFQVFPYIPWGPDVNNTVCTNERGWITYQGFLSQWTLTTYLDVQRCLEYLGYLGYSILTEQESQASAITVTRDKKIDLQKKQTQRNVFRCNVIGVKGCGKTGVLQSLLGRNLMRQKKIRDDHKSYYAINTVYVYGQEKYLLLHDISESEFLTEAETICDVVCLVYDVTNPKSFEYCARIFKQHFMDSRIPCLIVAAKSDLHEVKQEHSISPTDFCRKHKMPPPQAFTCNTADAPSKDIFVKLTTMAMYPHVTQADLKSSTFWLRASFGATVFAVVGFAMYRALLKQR
UniProt Q8BH74: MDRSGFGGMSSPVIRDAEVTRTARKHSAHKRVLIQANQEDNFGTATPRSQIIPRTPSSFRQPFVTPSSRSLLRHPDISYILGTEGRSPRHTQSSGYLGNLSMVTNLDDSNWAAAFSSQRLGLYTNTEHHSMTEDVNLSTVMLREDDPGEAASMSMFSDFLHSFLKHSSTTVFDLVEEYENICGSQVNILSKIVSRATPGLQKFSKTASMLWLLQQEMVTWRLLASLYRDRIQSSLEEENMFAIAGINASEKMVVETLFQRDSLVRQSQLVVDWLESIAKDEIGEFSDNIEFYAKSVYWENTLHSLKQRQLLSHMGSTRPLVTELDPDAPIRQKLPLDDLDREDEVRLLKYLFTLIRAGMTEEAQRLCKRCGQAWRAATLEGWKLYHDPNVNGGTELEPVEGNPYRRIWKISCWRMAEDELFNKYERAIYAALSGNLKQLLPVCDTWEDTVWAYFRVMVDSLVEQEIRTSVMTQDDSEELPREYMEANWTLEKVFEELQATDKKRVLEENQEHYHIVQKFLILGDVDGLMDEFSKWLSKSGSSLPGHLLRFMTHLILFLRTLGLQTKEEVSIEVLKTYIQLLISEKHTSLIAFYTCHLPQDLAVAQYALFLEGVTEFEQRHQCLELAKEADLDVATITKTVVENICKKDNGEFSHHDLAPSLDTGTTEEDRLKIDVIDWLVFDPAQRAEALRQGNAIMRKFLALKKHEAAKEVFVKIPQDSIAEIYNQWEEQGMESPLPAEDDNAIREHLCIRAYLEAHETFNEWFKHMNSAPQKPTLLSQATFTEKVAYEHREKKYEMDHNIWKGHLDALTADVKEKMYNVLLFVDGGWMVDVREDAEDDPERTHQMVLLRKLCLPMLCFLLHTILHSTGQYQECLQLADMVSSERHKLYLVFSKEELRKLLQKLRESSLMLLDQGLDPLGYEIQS
UniProt Q80VP5: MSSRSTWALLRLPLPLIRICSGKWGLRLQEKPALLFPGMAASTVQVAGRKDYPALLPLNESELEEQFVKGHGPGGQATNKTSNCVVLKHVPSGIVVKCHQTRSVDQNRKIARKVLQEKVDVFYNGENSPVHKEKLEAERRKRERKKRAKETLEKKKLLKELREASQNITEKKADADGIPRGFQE
UniProt Q80WC7: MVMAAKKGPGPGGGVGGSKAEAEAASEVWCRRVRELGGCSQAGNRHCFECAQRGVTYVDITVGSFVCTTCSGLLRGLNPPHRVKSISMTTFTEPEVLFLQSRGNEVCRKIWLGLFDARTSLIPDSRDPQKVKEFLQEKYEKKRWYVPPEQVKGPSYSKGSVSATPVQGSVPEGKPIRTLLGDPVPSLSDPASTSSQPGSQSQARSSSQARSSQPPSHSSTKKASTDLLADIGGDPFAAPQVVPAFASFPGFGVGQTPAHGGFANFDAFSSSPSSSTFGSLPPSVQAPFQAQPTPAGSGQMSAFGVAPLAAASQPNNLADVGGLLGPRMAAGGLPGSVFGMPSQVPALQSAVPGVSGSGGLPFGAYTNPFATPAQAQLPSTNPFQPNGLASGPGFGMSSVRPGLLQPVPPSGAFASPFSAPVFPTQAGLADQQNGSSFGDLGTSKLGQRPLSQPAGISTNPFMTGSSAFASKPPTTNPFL
UniProt Q810L4: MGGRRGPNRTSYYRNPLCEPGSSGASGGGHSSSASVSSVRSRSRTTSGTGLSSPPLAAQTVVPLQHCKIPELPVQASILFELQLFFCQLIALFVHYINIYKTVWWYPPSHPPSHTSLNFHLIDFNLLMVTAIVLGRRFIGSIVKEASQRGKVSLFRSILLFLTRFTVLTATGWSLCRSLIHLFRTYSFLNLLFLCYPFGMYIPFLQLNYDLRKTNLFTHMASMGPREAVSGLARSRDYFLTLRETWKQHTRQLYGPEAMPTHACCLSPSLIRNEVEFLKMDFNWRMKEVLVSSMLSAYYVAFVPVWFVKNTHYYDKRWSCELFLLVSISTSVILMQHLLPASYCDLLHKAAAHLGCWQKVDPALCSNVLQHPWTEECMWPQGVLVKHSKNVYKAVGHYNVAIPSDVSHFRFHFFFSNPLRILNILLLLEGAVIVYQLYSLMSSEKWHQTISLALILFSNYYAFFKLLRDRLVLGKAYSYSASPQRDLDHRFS
UniProt Q80X32: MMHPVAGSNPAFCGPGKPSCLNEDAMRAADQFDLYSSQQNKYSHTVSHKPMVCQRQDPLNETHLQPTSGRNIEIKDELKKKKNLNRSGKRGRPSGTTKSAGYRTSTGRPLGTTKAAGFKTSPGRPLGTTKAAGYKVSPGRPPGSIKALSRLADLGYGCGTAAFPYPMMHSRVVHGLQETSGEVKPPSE
UniProt Q80Y98: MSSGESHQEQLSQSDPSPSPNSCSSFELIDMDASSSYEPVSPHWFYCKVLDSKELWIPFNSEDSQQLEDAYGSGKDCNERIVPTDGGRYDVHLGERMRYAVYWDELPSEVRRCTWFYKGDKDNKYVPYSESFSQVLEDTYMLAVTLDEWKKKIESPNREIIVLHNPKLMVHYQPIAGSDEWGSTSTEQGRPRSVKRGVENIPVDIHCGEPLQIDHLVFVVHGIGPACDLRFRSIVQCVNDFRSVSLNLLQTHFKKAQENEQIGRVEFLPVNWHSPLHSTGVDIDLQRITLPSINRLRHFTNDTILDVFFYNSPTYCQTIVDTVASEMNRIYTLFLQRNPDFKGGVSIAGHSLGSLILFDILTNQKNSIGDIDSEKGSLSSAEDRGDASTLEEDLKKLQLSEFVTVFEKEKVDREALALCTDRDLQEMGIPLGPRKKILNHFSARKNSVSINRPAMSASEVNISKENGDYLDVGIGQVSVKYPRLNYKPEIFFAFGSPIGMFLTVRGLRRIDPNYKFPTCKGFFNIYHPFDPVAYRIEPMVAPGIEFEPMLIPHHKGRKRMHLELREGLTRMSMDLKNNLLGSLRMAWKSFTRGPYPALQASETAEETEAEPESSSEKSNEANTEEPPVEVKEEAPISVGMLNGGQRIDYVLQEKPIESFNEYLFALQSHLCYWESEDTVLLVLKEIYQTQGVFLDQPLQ
UniProt Q8BGF6: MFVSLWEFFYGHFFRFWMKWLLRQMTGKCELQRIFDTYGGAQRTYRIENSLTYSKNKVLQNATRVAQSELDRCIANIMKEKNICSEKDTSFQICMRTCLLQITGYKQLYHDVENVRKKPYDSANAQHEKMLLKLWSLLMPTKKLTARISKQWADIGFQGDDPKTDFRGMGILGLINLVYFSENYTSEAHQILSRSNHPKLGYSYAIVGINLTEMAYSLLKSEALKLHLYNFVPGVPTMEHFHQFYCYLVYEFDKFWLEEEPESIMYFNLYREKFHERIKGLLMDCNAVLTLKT
UniProt Q80Y86: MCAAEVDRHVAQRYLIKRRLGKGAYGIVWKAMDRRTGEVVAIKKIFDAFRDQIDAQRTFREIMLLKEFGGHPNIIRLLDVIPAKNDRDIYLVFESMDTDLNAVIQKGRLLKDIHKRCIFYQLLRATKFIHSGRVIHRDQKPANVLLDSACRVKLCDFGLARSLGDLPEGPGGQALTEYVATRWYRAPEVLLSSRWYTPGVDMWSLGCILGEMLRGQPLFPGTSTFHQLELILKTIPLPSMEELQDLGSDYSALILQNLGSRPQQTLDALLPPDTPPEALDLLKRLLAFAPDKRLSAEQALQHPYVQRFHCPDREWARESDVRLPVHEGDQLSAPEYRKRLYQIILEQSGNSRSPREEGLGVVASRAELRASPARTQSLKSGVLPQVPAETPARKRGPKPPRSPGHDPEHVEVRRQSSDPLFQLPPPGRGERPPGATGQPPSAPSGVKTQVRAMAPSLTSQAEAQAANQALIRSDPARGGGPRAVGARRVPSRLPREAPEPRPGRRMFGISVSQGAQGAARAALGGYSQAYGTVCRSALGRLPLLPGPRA
UniProt Q80VL1: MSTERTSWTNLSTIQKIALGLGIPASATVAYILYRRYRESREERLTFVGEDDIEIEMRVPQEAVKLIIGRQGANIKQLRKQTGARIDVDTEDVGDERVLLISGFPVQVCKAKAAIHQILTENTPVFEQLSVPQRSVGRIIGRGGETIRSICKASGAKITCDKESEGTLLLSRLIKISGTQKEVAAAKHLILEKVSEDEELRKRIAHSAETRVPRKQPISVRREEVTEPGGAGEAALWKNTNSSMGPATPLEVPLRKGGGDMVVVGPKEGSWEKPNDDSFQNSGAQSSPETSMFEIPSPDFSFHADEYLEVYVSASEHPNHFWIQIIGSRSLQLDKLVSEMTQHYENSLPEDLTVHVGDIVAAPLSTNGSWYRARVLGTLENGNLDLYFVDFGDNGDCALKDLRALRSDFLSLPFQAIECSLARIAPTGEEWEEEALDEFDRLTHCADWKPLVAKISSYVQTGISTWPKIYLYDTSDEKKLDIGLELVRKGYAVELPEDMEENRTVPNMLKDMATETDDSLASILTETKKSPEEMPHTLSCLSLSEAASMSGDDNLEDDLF

Target	log2 fold change
UniProt Q8BG32 (peptide sequence: ALLVEVQLLESK, peptide start residue: 164)	0.896
UniProt Q8BGD9 (peptide sequence: DDDYRGGGDR, peptide start residue: 288)	-0.575
UniProt Q8BHD8 (peptide sequence: YYLLYYR, peptide start residue: 351)	-0.415
UniProt Q80X90 (peptide sequence: YGGPNHISR, peptide start residue: 2456)	0.627
UniProt Q80XC3 (peptide sequence: FGFLHEEELPYHNAAADR, peptide start residue: 48)	-0.584
UniProt Q8BHL5 (peptide sequence: LDAMKELAK, peptide start residue: 101)	-0.235
UniProt Q8BHN1 (peptide sequence: AFQIKLER, peptide start residue: 426)	0.796
UniProt Q8BHT7 (peptide sequence: GTGVAPSVSHVTHAR, peptide start residue: 274)	-0.486
UniProt Q8BG51 (peptide sequence: HSIDKVTSR, peptide start residue: 101)	0.355
UniProt Q8BGA9 (peptide sequence: NAEIAQQLR, peptide start residue: 366)	0.0529
UniProt Q8BGS2 (peptide sequence: TLTPEQWTR, peptide start residue: 74)	0.115
UniProt Q80YF9 (peptide sequence: LLTLEEAQAR, peptide start residue: 597)	-0.271
UniProt Q8BH74 (peptide sequence: TVVENICK, peptide start residue: 639)	-0.198
UniProt Q80VP5 (peptide sequence: KADADGIPR, peptide start residue: 172)	-0.104
UniProt Q8BH61 (peptide sequence: CGPASVQAVK, peptide start residue: 410)	0.122
UniProt Q80WC7 (peptide sequence: WYVPPEQVK, peptide start residue: 144)	-0.346
UniProt Q8BGQ7 (peptide sequence: GGYVLHIGTIYGNLK, peptide start residue: 570)	0.625
UniProt Q80YX1 (peptide sequence: NGREDFYR, peptide start residue: 1940)	0.127

Target	log2 fold change
UniProt Q8BGQ4 (peptide sequence: DVVPQAAAR, peptide start residue: 102)	0.171
UniProt Q810L4 (peptide sequence: KTNLFTHMASMGPR, peptide start residue: 213)	0.474
UniProt Q810A3 (peptide sequence: VREYSQK, peptide start residue: 93)	-0.567
UniProt Q80X32 (peptide sequence: QDPLNETHLQPTSGR, peptide start residue: 56)	-0.257
UniProt Q8BHK9 (peptide sequence: LITCGTVEEK, peptide start residue: 587)	0.175
UniProt Q80Y98 (peptide sequence: GDASTLEEDLKK, peptide start residue: 385)	-0.507
UniProt Q8BFW7 (peptide sequence: LRGQPFYAVEKK, peptide start residue: 452)	-0.221
UniProt Q8BGF6 (peptide sequence: KKPYDSANAQHEK, peptide start residue: 117)	-0.306
UniProt Q810L3 (peptide sequence: NKITQDMLQPK, peptide start residue: 382)	-0.344
UniProt Q810J8 (peptide sequence: VLAISDLVIYR, peptide start residue: 256)	0.308
UniProt Q8BFS9 (peptide sequence: SAVNYQCLFSGHVLHLR, peptide start residue: 41)	0.592
UniProt Q80Y86 (peptide sequence: LCDFGLAR, peptide start residue: 154)	-0.179
UniProt Q8BGD6 (peptide sequence: VSDHAAAMNKR, peptide start residue: 56)	-0.248
UniProt Q8BFS6 (peptide sequence: SAMEAADVFHR, peptide start residue: 2)	0.134
UniProt Q80Y17 (peptide sequence: RPEQAVEAVLGK, peptide start residue: 768)	0.774
UniProt Q811S7 (peptide sequence: QNENGEYTDHLHSASCQIK, peptide start residue: 215)	-0.474
UniProt Q80WW9 (peptide sequence: AAAADGEPLHNEEER, peptide start residue: 28)	0.388
UniProt Q80VL1 (peptide sequence: REEVTEPGGAGEAALWK, peptide start residue: 222)	-0.216

A few values from the list.
Under log2 fold change, UniProt Q8BGQ4 (peptide sequence: DVVPQAAAR, peptide start residue: 102) has 0.171
Under log2 fold change, UniProt Q810J8 (peptide sequence: VLAISDLVIYR, peptide start residue: 256) has 0.308
Under log2 fold change, UniProt Q80Y17 (peptide sequence: RPEQAVEAVLGK, peptide start residue: 768) has 0.774

Reference: the supplement of paper PMC12819154, “High-throughput peptide-centric local stability assay extends protein–ligand identification to membrane proteins, tissues and bacteria” (Nature Structural & Molecular Biology, 2025)
